# Patent US20160046678A1 (ZYNGENIA, published 2016)
# By UniProt entry, the sequences of proteins in these tests, tags left out. Residues count along the entry.
# UniProt P05231, residues 30-212: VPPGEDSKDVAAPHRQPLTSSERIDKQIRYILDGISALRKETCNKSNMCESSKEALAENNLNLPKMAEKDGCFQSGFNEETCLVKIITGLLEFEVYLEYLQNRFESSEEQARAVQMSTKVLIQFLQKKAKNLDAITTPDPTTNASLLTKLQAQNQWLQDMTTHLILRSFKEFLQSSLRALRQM
# Results are given in words; binding and its absence hold for the method and conditions named. Some entries that bind do so weakly or less than the wild type.
# Molecular target: IL6 (UniProt P05231)
# Assay: MRD identification, Example 48
row,Binder,binding
1,WFLFPWTCPWDPLLMECI [ILB303],binds
2,SVQYETPCYWDPLRMQCQ [ILB304],binds
3,LDFSFFDCSWDPLLMRCS [ILB305],binds
4,FRMKKVDCCWDPLLMNCR [ILB306],binds
5,NAPVWVECMWDPLLMSCV [ILB307],binds
6,GYAWCFWDPLLMKCTWQV [ILB308],binds
7,DDFLCSWDPLLMDCMVYP [ILB309],binds
8,FEDSCAWDPLLMACSNPI [ILB310],binds
9,LAGSVSGTLLQQTVQRT [ILB311],binds
10,LVSFCAWDPLLMNCMWPM [ILB312],binds
11,LYGECAWDPLLMRCQPYY [ILB313],binds
12,GSKRFGICFWDPLLMDCA [ILB314],binds
13,YVAVGPSCLWDPLLMMCA [ILB315],binds
14,GFGSSWFCSWDPLLMQCQ [ILB316],binds
15,SISRAFSCVWDPLLMNCS [ILB317],binds
16,MTQSLSFCHWDPLLMYCV [ILB319],binds
17,LVPYSWYCVWDPLLMDCV [ILB320],binds
18,SDNLYFDCHWDPLLMMCR [ILB321],binds
19,LFTMCHWDPLLMDCATVP [ILB323],binds
20,FCSWDPMLMDCSTITFDM [ILB324],binds
21,TQMYCWWDPLLMNCTEMS [ILB329],binds
22,LTGYCYWDPLLMNCLEQG [ILB330],binds
23,NHPMCWWDPLMMDCMYFE [ILB331],binds
24,PDTLCIWDPLLMQCRWMP [ILB332],binds

row,Binder,binding
1,VNVSFWGCVWDPLLMVCS [ILB333],binds
2,KAVLSNYCYWDPLLMICS [ILB334],binds
3,LGRLVPYCRWDPLSMVCL [ILB335],binds
4,RWKIDVICKVEILQRRCT [ILB337],binds
5,SHIACGWDPLMMMCTQEM [ILB339],binds
6,ICWWDPLLMDCISTVEPY [ILB340],binds
7,MFLSVVDCFWDPLLMECV [ILB341],binds
8,HCYWDPLLMTCYDSGPWV [ILB342],binds
9,IFEYCVWDPLLLRCSLNS [ILB343],binds
10,FVDDCVWDPLMMDCHRYS [ILB344],binds
11,KLALLDDCIWDPLLMSCR [ILB347],binds
12,WTNWCGWVLPTMLCMYWI [ILB348],binds
13,DWSTLYFCSWDPLLMLCS [ILB349],binds
14,GQNHCFWDPLMMICLNGH [ILB350],binds
15,TLLTCVWDPLLMQCRDLE [ILB351],binds
16,YVSPCVWDPLLMLCNESW [ILB352],binds
17,LCFWDPLYMECSTHLYID [ILB353],binds
18,LLAWCFWDPLLMDCVWDS [ILB357],binds
19,YHYLSVNCHWDPLLMECT [ILB358],binds
20,FHHFCFWDPLLMGCMNYN [ILB359],binds
21,FCVWDPLLMLCQWLEDSS [ILB360],binds
22,FNTQSTDCWWDPLLMLCA [ILB361],binds
23,VQLTCFWDPLMMWCSEQS [ILB362],binds
24,LRAICIWDPLMMLCGTMG [ILB365],binds

row,Binder,binding
1,ISFPHFICPWDPLLMQCS [ILB367],binds
2,RSFVCNWDPLMMTCTSDL [ILB368],binds
3,PLWSCFWDPLLMDCQWTL [ILB369],binds
4,SHSSNMGCYWDPLMMMCH [ILB370],binds
5,RVYECYWDPLIMDCTWDL [ILB371],binds
6,FSVNYTPCVWDPLLMRCS [ILB377],binds
7,LVALPNSCFWDPLLMTCR [ILB378],binds
8,FWVGCPWDPLLMKCTSYN [ILB379],binds
9,KLALMSSCLWDPLLMDCM [ILB380],binds
10,HCYWDPLLMDCKYLILEG [ILB381],binds
11,GSIICWWDPLLMSCADLK [ILB382],binds
12,QLFTCHWDPLLMDCTWDS [ILB383],binds
13,WLEQCVWDPLLMSCTSYV [ILB387],binds
14,SSPGIDACWWDPLLMDCA [ILB388],binds
15,LHFVCFWDPLIMDCSPQM [ILB389],binds
16,SYAYCYWDPLLMECADPM [ILB390],binds
17,VWLVFWPCFLDPISSICN [ILB393],binds
18,SLLECFWDPLMMNCSNGL [ILB395],binds
19,SDDWTMECYWDPLLMTCI [ILB397],binds
20,ALMFCFWDPLLMRCNANV [ILB398],binds
21,NRLMCFWDPLLMVCQSDL [ILB399],binds
22,LMQRPVHCVWDPLLMNCR [ILB402],binds
